Measured values reported in publication PMC8079276.
Results are given in words; binding and its absence hold for the method and conditions named. Binding seen in cells or lysates may run through a third protein. These calls come from enrichment with a bait or labelling near it, and not all partners need be listed. Sequences can lack the tags named with a protein.

T1: UDP-N-acetylglucosamine-peptide N-acetylglucosaminyltransferase (mouse (endogenous in MEFs)) (UniProt Q8CGY8)
T1 sequence: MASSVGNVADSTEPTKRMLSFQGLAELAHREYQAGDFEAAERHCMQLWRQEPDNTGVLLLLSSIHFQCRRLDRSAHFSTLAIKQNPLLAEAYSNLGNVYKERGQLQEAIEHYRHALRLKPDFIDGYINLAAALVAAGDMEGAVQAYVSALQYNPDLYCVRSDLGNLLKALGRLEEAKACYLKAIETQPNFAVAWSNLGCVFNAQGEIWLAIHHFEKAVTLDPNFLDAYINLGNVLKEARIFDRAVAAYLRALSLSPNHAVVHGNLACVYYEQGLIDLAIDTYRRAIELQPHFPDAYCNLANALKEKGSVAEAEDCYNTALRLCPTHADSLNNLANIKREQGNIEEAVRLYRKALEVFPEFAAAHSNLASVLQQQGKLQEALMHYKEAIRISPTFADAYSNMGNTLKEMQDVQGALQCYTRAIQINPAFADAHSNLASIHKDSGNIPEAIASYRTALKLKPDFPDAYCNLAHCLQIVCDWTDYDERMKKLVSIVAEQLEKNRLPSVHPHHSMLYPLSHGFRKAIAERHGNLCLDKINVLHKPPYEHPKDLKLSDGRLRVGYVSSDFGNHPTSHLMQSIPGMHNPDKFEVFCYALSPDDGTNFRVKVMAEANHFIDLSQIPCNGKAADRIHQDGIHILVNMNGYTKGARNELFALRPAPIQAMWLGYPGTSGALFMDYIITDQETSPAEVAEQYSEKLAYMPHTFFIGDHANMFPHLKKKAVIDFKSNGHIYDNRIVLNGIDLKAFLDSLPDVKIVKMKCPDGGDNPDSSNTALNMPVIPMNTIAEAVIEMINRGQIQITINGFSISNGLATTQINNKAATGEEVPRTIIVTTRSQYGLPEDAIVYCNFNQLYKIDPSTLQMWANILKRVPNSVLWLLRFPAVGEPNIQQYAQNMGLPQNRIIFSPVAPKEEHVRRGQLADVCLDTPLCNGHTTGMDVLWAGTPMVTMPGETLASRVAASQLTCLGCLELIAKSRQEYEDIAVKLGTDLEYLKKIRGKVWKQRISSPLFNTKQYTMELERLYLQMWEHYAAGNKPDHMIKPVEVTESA

B1: trafficking kinesin-binding protein 2 (protein, UniProt Q6P9N8 1-913)
chain: MSQSQNAIFKSRTGEANLMSSNHRDSESITDVCSNEDLPEVELVNLLEEQLPQYKLRVDSLFLYENQDWAQSSHQQQDAPETLSPVLAEETFRYMILGTDRVEQMTKTYNDIDMVTHLLAERDRDLELAARIGQALLKRNHVLSEQNEALEEQLGQAFDQVNQLQHELSKKDELLRIVSIASEESETDSSCSTPLRFNESFSLSQGLLQLDMLHEKLRELEEENMALRSKACHIKTETFTYEEKEQQLVNDCVKELRETNAQMSRMTEELSGKSDELLRYQEEISSLLSQIVDLQHKLKEHVIEKEELRLHLQASKDAQRQLTMELHELQDRNMECLGMLHESQEEIKELRSKSGPSAHLCFSQSYGVFTGESLAAEIEGTMRKKLSLDEESVSKQKAQQKRVFDTVKVANDTRGRSVTFPVLLPIPGSNRSSVIMTAKPFESGVQPAEDKTLLSPGGSTEVPGNSQPTNPPGSPEDSDLATALHRLSLRRQNYLSEKQFFAEEWERKIQILAEQEEEVSSCDAPTENLASVCTDQSETTDLGSASCLRGFMPEKLQIVKPLEGSQTLHHWQQLAQPNLGTILDPRPGVITKGFTQVPKDVVYHISDLEEDEEEGITFQVQQPLQLEQKPALPTPVTGIFLPPMTSAGGPGTVATSNPGKCLSFTNSTFTFTTCRILHPSDITQVTPSSGFPSLACGSSASSSSNTAVNSPAASYRLSIGESITNRRDSTITFSSTRSLAKLLQERGISAKVYHSPASENPLLQPCPKALATPSTPPNSPAQSPCSSPLPFEPRVHVSENFLASRPAETFLQEMYGLRPSRAPPDVGQLKMNLVDRLKRLGIARVVKTPDPQENGKSREAEMGLQKPDPAVYLNSGGSLLCGLRRNQSLPVMMGSFGAPVCTTSPKMGILKED
B2: short-chain–specific acyl-CoA dehydrogenase (protein, UniProt Q07417 25-412)
chain: LHTVYQSVELPETHQMLRQTCRDFAEKELVPIAAQLDREHLFPTAQVKKMGELGLLAMDVPEELSGAGLDYLAYSIALEEISRACASTGVIMSVNNSLYLGPILKFGSAQQKQQWITPFTNGDKIGCFALSEPGNGSDAGAASTTAREEGDSWVLNGTKAWITNSWEASATVVFASTDRSRQNKGISAFLVPMPTPGLTLGKKEDKLGIRASSTANLIFEDCRIPKENLLGEPGMGFKIAMQTLDMGRIGIASQALGIAQASLDCAVKYAENRNAFGAPLTKLQNIQFKLADMALALESARLLTWRAAMLKDNKKPFTKESAMAKLAASEAATAISHQAIQILGGMGYVTEMPAERYYRDARITEIYEGTSEIQRLVIAGHLLRSYRS
B3: G2 phase– and S phase–expressed protein 1 (protein, UniProt Q8R080 1-741)
chain: MDAGSKKEDFLLLEDEKFDFDLSLSSSSTNEDDEVFFGPVGHKERCIAASLDLNRRVPGQPLAPGSGSPCTLSPLTGEKFVEVYKEAHLLALQIESHSRREVAQAATPQNPVNQGKETFVQDSQLKVSLFEKEQKRDRSPMSLKRETFCLPSSRVQPPMGEPQLLASPGLLSSPVSAGPAQTQSNQGLPCSSQPLPRESSTSQPPSQAGPQKRITSKLQPPRALPVRGRNLHLATEKLKKEVPASIQRTKLVNEKGSQSDVLQDKPSTAPDAASREGHPGKRSLPIPGKLGLKKTLLKPPGYTGNLTRKSSTSGSASSLESGVYRSSVAGKAKSSEQRSSIPASGSQRRTSTSKSGRIGPAASRQALPAAPARVFGRQANKADAAQTVAEQPKVPTLSPLTQQPQTPEQRGPRLDPDTETPQLNKTVSIKRRDSYLSCKTEAVSTTTNPFKVPQFSVGESPGGVTPKFSRTHRLQSWTPASRVVSSTPVRRSSGTTPQGLPGSMRTPLSTRRMSVLPTPASRRLSSLPLMAPQSMPRALVSPLCVPARRLSSEPRRRSTVRAELTQESSGSGSGGQAQGLSSDESSSPPSSVPQALNFSPEKSASPPPQGSSTGAAQGEAEPPEDTLPSEVHGGGCSHTPSEGLLLDLKLDQLTITPEAGGRDLADCPLIDFSNTPESNTALGPSSWPLIDLIMNTPDMGRNDVGKPAKAELGQLIDLGSPLIQLSPEADKENVDSPLLKF
B4: MICOS complex subunit Mic19 isoform X1 (protein, UniProt Q9CRB9 1-227)
chain: MGGTASTRRVTFEADENENITVVKGIRLSENVIDRMKESSPSGSKSQRYSSVYGASVSDEDLKRRVAEELALEQAKKESEHQRRLKQARDLERERAAANEQLTRAVLRERISSEEERMKAKHLARQLEEKDRVMRKQDAFYKEQLARLEERSSEFYKVTTEEYQKAAEEVEAKFKRYEYHPVCADLQTKILQCYRQNTQQTLSCSALASQYMHCVNHAKQSMLEKGG
B5: KAT8 regulatory NSL complex subunit 1 (protein, UniProt Q80TG1 1-1036)
chain: MAAMAPALTDAAAEAHHIRFKLAPPSSTLSPGSAENNGNANILISANGTKRKAIAAEDPSLDFRNNPTKEDLGKLQPLVASYLCSDVTSVPAKESLKLQGVFSKQTVLKSHPLLSQSYELRAELLGRQPVLEFSLENLRTMNTSGQTALPQAPVNGLAKKLTKSSTHSDHDNSSSLNGGKRSLTSSSLQGGEVGGPDSGNLKGGMTNCTLPHRSLDIQHTTLYSNNSTANKSSVNSMDQPALQGSSRLSPSTDSSSNLTNVKLEVKKSPLSSILFSALDSDTRITALLRRQADIEIRARRLQKRLQVVQAKQVERHLQHQLGGFLETTLSKLPNLESLRSRSQLMLTRKAEAALRKAASESATSEGLSNFLKSDSISEELERFTASGIANLRCSEQAFDSDVTDSSSGGESDIEEEELTRADPEQCHVPLKRRSEWRWAADRAAIVSRWNWLQAHVSDLEYRIRQQTDIYKQIRANKGLIVLGEAPFPDHTTDLLSLSSEVKTDHGRDKLIESVSQPSENHGILVSNITESLSTKSCGAPRPVNGVVNSLQPVLADQVPGDSSDAEEQLHKKQRLNLVSSSDGTCVAARTRPVLTCKKRRLVRPSSIVPLSKKVHRNVRSGCDVNPSCALCGSGSVNTMPPEIHYEAPLLERLSQLDSCVHPVLAFPDDVPTSLHFQSMLKSQWQNKPFDKIKPTKKFSLKHRATMPCSLSDPVRKDRHKLVNSFLTTAMLKHHTDMSSPSYLTATHHPPHSPLVRQLSTSSDTSTPTSSGSQVAASTSQPVRRRRGESSFDINNIVIPMSVAATTRVEKLQYKEILTPSWREVDVQSLKGSPDEENEEIEDLSDAAFAALHAKCEEMERARWLWTTSVPPQRRGSRSYRSSDGRTTPQLGSANPSTPQPASPDVSSSHSLSEFSHGQSPRSPISPELHSAPLTPVARDSLRHLASEDTRCSTPELGLDEQSVQPWERRTFPLAYSPQAECEEQLDAQDTAARCTRRTSGSKTGREAEVAPTSPPVVPLKSRHLAATVTAQRPAHR
B6: Peptidyl-prolyl cis-trans isomerase FKBP8 isoform X1 (protein, UniProt O35465-2 1-403)
chain: MASWAEPSEPAALRLPGAPLLEGFEVLDGVDDAEEEDDLSGLPPLEDMGQPTVEEAEQPGALAREFLAATEPEPAPAPAPEEWLDILGNGLLRMKTLVPGPKGSSRPLKGQVVTVHLQMSLENGTRVQEEPELAFTLGDCDVIQALDLSVPLMDVGETAMVTADSKYCYGPQGSRSPYIPPHAALCLEVTLKTAEDGPDLEMLSGQERVALANRKRECGNAHYQRADFVLAANSYDLAIKAITSNTKVDMTCEEEEELLQLKVKCLNNLAASQLKLDHYRAALRSCSQVLEHQPDNIKALFRKGKVLAQQGEYSEAIPILRAALKLEPSNKTIHAELSKLVKKRAAQRSTETALYRKMLGNPSRLPAKCPGKGAWSIPWKWLFGATAVALGGVALSVVIAARN
B7: Trafficking kinesin-binding protein 1 isoform X1 (protein, UniProt Q6PD31 1-939)
chain: MALAIQLRQPSRAQPLPGLSHTLAGTDSCDVCNSTNLPEVEIISLLEEQLPHYKLRADTIYGYDHDDWLHTPLISPDANIDLTTEQIEETLKYFLLCAERVGQMTKTYNDIDAVTRLLEEKERDLELAARIGQSLLKKNKTLTERNELLEEQVEHIREEVSQLRHELSMKDELLQFYTSAAEESEPESVCSTPLKRNESSSSVQNYFHLDSLQKKLKDLEEENVVLRSEACQLKTETITYEEKEQQLVNDCVKELRDANVQIASISEELAKKTEDAARQQEEITHLLSQIVDLQKKAKSCAVENEELVQHLGAAKDAQRQLTAELRELEDKYAECMEMLHEAQEELKNLRNKTMPTSRRYHSLGLFPMDSLAAEIEGTMRKELQLEELESPDITHQKRVFETVRNVNQVVKQRSLTPSPMNIPGSNQSSAMNSLLSSCVSTPRSSFYGSDVSNVVLDNKTNSILLETEAADLGNEDHNKKPGTPGTPGSHDLETALRRLSLRRENYLSERRFFEEEQERKLRELAEKGELHSGSLTPTESIMSLGTHSRFSEFTGFSGMSFSSRSYLPEKLQIVKPLEGSATLHHWQQLAQPHLGGILDPRPGVVTKGFRTLDVDLDEVYCLNDFEEDDTGDHISLAGLATSTPIQHPETSAHHPGKCMSQTNSTFTFTTCRILHPSDELTRVTPSLNSAPAPACSSTSHLKSTPVATPCTPRRLSLAESFTNVRESTTTMSTSLGLVWLLKERGISAAVYDPQSWDRAGRGSLLHSYTPRMAVIPSTPPNSPMQTPSASPPSFEFKCTSPPYNNFLASKPASSILREVREKRPVRSSESQTDVSVSNLNLVDKVRRFGVARVVNSGRARIPTLTEEQGPLLCGPTGPAQALVPGGLVPEGLPLGCPSGIRRNRSFPTMVGSSVQMRAPVILTSGILMGAKLPKQTSLR

molecular target: T1, UDP-N-acetylglucosamine-peptide N-acetylglucosaminyltransferase (mouse (endogenous in MEFs)); experiment: affinity purification with mass spectrometry; endogenous OGT immunoprecipitated (antibody AL24, protein G magnetic beads, TCL buffer: 50 mM Tris HCl, 150 mM NaCl, pH 7.5, 1% NP-40, 2 mM EDTA) from a 1:1:1 mix of SILAC-labelled lysates of WT, H2O2-treated (2.5 mM, 1.5 h) and OGT-null MEFs, precleared with rabbit IgG; in-gel trypsin digestion, LC-MS/MS; interactor if log2 WT or H2O2/null >=1 in 2 or more replicates

binding, binds:
B1
B2
B3
B4
B5
B6
B7
